Several values for one entry are separate records, joined by “and”; a condition that tells them apart may be missing. Equal entries are not always repeated. About 7,500 (2.1%) of roughly 360,000 compounds were called active. This list was built around the results that the source calls inconclusive (neither active nor inactive); the mix of calls is not that of the screen. Calls follow the shape of the dose curve; as a rule, active = well fitted inhibition curve with a large enough effect; inconclusive = small, poorly fitted or top-dose-only effect, or effect the other way; inactive = flat fitted curve, though single readings scatter. A potency beside an inconclusive call is a rough fit, not a confirmed value.
experiment: Nrf2 qHTS screen for inhibitors; conditions: A549 ARE-Fluc reporter, luciferase luminescence, 18-24 h; activity change, negative = inhibition: at 46 µM (top of the series); also: nearly all actives have a fitted effect of over 60% in size
How it was run: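 Nrf2 activity is the BugLite luminescence, read 15 min after reagent at room temperature, following CellTiter-Fluor cytotoxicity readout (30 min, 37C). Compound titrations were applied for 18-24 h to 5000 A549 ARE_Fluc cells/well in 5% FBS OPTI-MEM.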
% is scaled to controls: 0 for no effect and ±100 for the full control effect; potency is read from the fitted curve at half-maximal effect.

Structure (SMILES)	Potency	activity change, negative = inhibition
COC(=O)c1cn(NC(=O)c2ccc(OC)c(OC)c2)c(=O)c2ccccc12	inconclusive: 5.17 µM [falling, partial curve]	
COc1ccccc1NC(=O)c1sc2ncn(Cc3ccccc3C)c(=O)c2c1C		inactive: -8.13%
COc1ccc(N/C=C2/Sc3ccccc3NC2=O)cc1	inconclusive: 3.66 µM [activator, full curve]	
C=CCN(Cc1cccs1)C(=O)CN1CCN(S(=O)(=O)c2ccc3c(c2)OCCCO3)CC1	inconclusive: 29.1 µM [falling, single point]	
COc1cccc(C(=O)Nc2nnc(-c3cccs3)o2)c1		inactive: -5.25%
Cc1ccc(C)c(NC(=O)CCCn2nc(C)c3sc4ccccc4c3c2=O)c1	inconclusive: 20.6 µM [falling, single point]	
COc1cc2c(cc1NC(=O)COC(=O)CNC(=O)c1ccccc1)oc1ccccc12	inconclusive: 11.6 µM [activator, partial curve, poor fit]	
O=C(NC1CCCCCC1)c1ccc(CS(=O)Cc2ccccc2Cl)o1 (stereo not drawn)		inactive: 2.48%
COCc1cc(C)n(CC(=O)Nc2ccc(Cl)cc2Cl)c(=O)c1C#N	inconclusive: 6.51 µM [activator, single point]	
C/C(=N\NC(=O)NC1CCCCC1)c1ccc(OC(F)F)cc1OC(F)F	inconclusive: 20.6 µM [falling, single point]	
CC(=O)c1ccc(NC(=O)c2ncn(-c3ccccc3)n2)cc1	inconclusive: 10.3 µM [activator, partial curve]	
CCCCNC(=O)CCCn1c(=O)c2ccccc2n(Cc2ccccc2C)c1=O		inactive: -9.91%
COc1cccc(NC(=S)NC(=O)/C=C/c2ccc(F)cc2)c1		inactive: -15.3%
COc1ccc(CNC(=O)COCc2cc(-c3cccs3)on2)cc1OC	inconclusive: 10.3 µM [falling, partial curve, poor fit]	
Cc1ccc(NC(=O)C2(c3ccc([N+](=O)[O-])cc3)CCCC2)cc1		inactive: 3.34%
CCc1c(C)sc(NC(=O)C2CCCO2)c1C#N (stereo not drawn)	inconclusive: 29.1 µM [activator, single point]	
COc1ccc2cc3cc(C(=O)NCC4COc5ccccc5O4)oc3nc2c1 (stereo not drawn)	inconclusive: 29.1 µM [falling, single point]	
CCN(CC)CCNC(=O)Cn1ncc2c([nH]c3ccccc32)c1=O	inconclusive: 16.4 µM [activator, partial curve, poor fit]	
Cc1cc2ccccc2n2c(SCC(=O)NCc3cccs3)nnc12	inconclusive: 20.6 µM [falling, single point]	
CCC(=O)c1cn(CC(=O)NCc2ccco2)c2ccccc12	inconclusive: 29.1 µM [activator, single point]	
Fc1ccccc1NC(=S)NCCc1cccc(Cl)c1		inactive: 15.8%
CCN(CC)C(=O)Oc1ccc2c(=O)c(-c3ccc(OC)cc3)c(C)oc2c1	inconclusive: 20.6 µM [falling, single point]	
Cn1nc(C(=O)N2CCN(c3ccccc3F)CC2)c2c1-c1ccccc1SC2	inconclusive: 20.6 µM [falling, single point]	

Structure (SMILES)	Potency	activity change, negative = inhibition
Cc1cccc2cc(/C=C/C(=O)c3ccco3)c(Cl)nc12	inconclusive: 6.51 µM [activator, full curve]	
Cc1ccc(NC(=O)c2cccn2-c2nnc(N3CCCCC3)s2)cc1Cl		inactive: -14%
O=[N+]([O-])c1cc(S(=O)(=O)Nc2ccc(Cl)cc2)ccc1N/N=C/c1ccncc1	inconclusive: 6.51 µM [activator, single point]	
Cc1ccc(NC(=O)CCCn2c(=O)c3cccn3c3cccnc32)c(Cl)c1		inactive: -3.94%
Cc1[nH]n(-c2ccccc2)c(=O)c1/C=N/NC(=O)C(C)C	inconclusive: 20.6 µM [falling, single point]	
CCCCOc1ccc(CNn2c(C)nc3ccccc3c2=O)cc1	inconclusive: 29.1 µM [falling, single point]	
Cc1c(C(=O)c2ccc(Cl)cc2[N+](=O)[O-])c2ccccn2c1CCC#N	inconclusive: 9.2 µM [falling, partial curve, poor fit]	
Cc1cc(C)nc(NC(=O)CSc2nc3ccccc3o2)n1	inconclusive: 2.06 µM [activator, partial curve]	
COc1cc(CN(C)Cc2cc(=O)n3ccsc3n2)ccc1OC(F)F	inconclusive: 3.26 µM [falling, single point]	
COc1cccc(CNC(=O)c2ccc(NC(=O)CC3SC(N4CCCCC4)=NC3=O)cc2)c1 (stereo not drawn)	inconclusive: 29.1 µM [falling, single point]	
Cc1nc2ccccc2n1C1CC(=O)N(Cc2ccccc2)C1=O (stereo not drawn)	inconclusive: 20.6 µM [falling, single point]	
Cc1nc(C(C)NC(=O)c2cc(COc3ccc(C)c(C)c3)on2)c(C)s1 (stereo not drawn)		inactive: 4.68%
CCCSc1nc2c(c(=O)[nH]c(=O)n2C)n1Cc1ccccc1		inactive: -22.7%
Cc1c(C(=O)Nc2cccc([N+](=O)[O-])c2)csc1-c1ccccc1	inconclusive: 1.64 µM [activator, full curve]	
O=C(NNC(=S)NC1CCCCC1)c1sc2ccccc2c1Cl	inconclusive: 32.6 µM [falling, single point]	
Cc1ccc(NC(=O)c2ccc3c(c2)OCO3)cc1S(=O)(=O)N1CCOCC1		inactive: -2.83%
Cc1ccc(C2=Nc3ccccc3N(CC(=O)Nc3cccc(F)c3)C(=O)C2)cc1C		inactive: 22.5%
Cc1nc(NCc2ccc(S(N)(=O)=O)cc2)c2c(C)c(C)sc2n1	inconclusive: 2.06 µM [falling, full curve, poor fit]	
OCCNCc1ccc(OCc2ccc(Cl)cc2Cl)cc1		inactive: 4.63%
COC(=O)C1=C(C)NC(=S)N(C(C)=O)C1c1ccc(OC)c(OC)c1 (stereo not drawn)	active: 14.6 µM	
COc1cc(SC)ccc1C(=O)Nc1ccc(Cl)cn1	inconclusive: 1.46 µM [activator, partial curve, poor fit]	
N#C/C(=N\Nc1ccccc1[N+](=O)[O-])C(=N)N1CCCCC1	inconclusive: 29.1 µM [activator, partial curve]	
Cc1ccc(NC(=O)C2CCCN2S(=O)(=O)c2cccc3cccnc23)cc1 (stereo not drawn)		inactive: -19.3%

Full records from above:
Cc1ccc(NC(=O)c2ccc3c(c2)OCO3)cc1S(=O)(=O)N1CCOCC1 in the list: activity change, negative = inhibition: inactive: -2.83%
Cc1nc(NCc2ccc(S(N)(=O)=O)cc2)c2c(C)c(C)sc2n1 in the list: Potency: inconclusive: 2.06 µM [falling, full curve, poor fit]
Cc1c(C(=O)c2ccc(Cl)cc2[N+](=O)[O-])c2ccccn2c1CCC#N in the list: Potency: inconclusive: 9.2 µM [falling, partial curve, poor fit]

Going on with the list.

Structure (SMILES)	Potency	activity change, negative = inhibition
COc1ccc(-c2ccnc3c(-c4ccc(F)cc4)c(C)nn23)cc1OC	inconclusive: 7.31 µM [falling, partial curve, poor fit]	
N#CC(c1nc2ccccc2nc1N1CCCC1)S(=O)(=O)c1ccccc1 (stereo not drawn)	inconclusive: 20.6 µM [falling, partial curve]	
COc1ccc(-c2nc3cc(NC(=O)c4ccc5c(c4)OCO5)ccc3o2)cc1	inconclusive: 0.164 µM [falling, partial curve, poor fit]	
O=C(Cn1cc(SCc2cccc(Cl)c2)c2ccccc21)N1CCOCC1	inconclusive: 16.4 µM [activator, single point] and inconclusive: 7.31 µM [activator, partial curve]	
O=c1[nH]c(SCc2ccc(F)cc2)nc2c1CCCC2	inconclusive: 29.1 µM [activator, single point]	
O=C(CSC(=S)N1CCOCC1)c1ccccc1	inconclusive: 5.17 µM [activator, partial curve]	
O=C(CC12CC3CC(CC(C3)C1)C2)NCC(=O)OCc1cc(=O)oc2ccc3ccccc3c12	inconclusive: 20.6 µM [activator, partial curve, poor fit]	
COc1cc(C)c(NC(=O)COc2cccc3c2OC(C)(C)C3)cc1OC	inconclusive: 18.4 µM [falling, single point]	
O=C(CNC(=O)c1cccs1)N/N=C/c1cccc(Cl)c1		inactive: -5.95%
CCCNC(=O)c1cccc(COCC(F)(F)C(F)F)c1	inconclusive: 0.0041 µM [falling, full curve, poor fit]	
CCN1CCN(c2ccc(S(=O)(=O)N3CCOCC3)cc2NC(=O)C2CCC(C(C)(C)C)CC2)CC1 (stereo not drawn)		inactive: 1.22%
Nc1nonc1-c1nc2ccccc2n1Cc1ccc(F)cc1Cl	inconclusive: 7.31 µM [activator, partial curve]	
CCCOc1ccccc1OCC(=O)Nc1ccc(S(=O)(=O)N2CCCCC2)cc1	inconclusive: 25.9 µM [falling, single point]	
CCCC1NC(=S)N(C2CCCCC2)C1=O (stereo not drawn)		inactive: 9.08%
N=C1S/C(=C\c2cccc3ccccc23)C(=O)N1c1ccc(F)cc1	inconclusive: 18.4 µM [falling, single point]	
O=C(CSCc1ccc(Cl)cc1)N/N=C/c1ccc(OCC(=O)Nc2ccccc2)cc1	inconclusive: 3.66 µM [falling, partial curve, poor fit]	
CCCc1nc2c(s1)CCc1onc(-c3ccc(Br)cc3)c1-2	inconclusive: 16.4 µM [activator, partial curve]	
CCCCn1c(N)c(N(CC(C)C)C(=O)C2CCN(c3ncnc4sc(C)c(C)c34)CC2)c(=O)[nH]c1=O	inconclusive: 10.3 µM [falling, partial curve, poor fit]	
CC(C)Sc1nc2c(cnn2-c2ccccc2)c(=O)[nH]1		inactive: -27.7%
COc1ccc(-c2csc(COC(=O)C(C)(C)C)n2)cc1	inconclusive: 25.9 µM [activator, single point]	
CCCCN(C)S(=O)(=O)c1cc2c(cc1Br)CCN2C(=O)C1CC1	inconclusive: 25.9 µM [falling, single point]	
COc1ccc(-n2c(C)cc(/C=N/Nc3nc(N4CCOCC4)nc(N4CCOCC4)n3)c2C)cc1		inactive: -3.18%
